Source: PubChem BioAssay (EPA / NIEHS)
The shares of active, inactive and inconclusive entries below differ from those in the screen. Potencies beside an inconclusive call are fits to weak or partial responses and may not hold up. The source made the active and inactive calls. How the source made its calls: active means hit-call score of the fitted dose curve at least 0.9, where 1 is the maximum; inconclusive means response in the unintended direction; inactive means score below 0.9.

By UniProt entry, the sequences of proteins in these tests, tags left out. Where a name states a change or a piece, a line headed by the entry shows the natural chain unless it says otherwise.
UniProt P10827: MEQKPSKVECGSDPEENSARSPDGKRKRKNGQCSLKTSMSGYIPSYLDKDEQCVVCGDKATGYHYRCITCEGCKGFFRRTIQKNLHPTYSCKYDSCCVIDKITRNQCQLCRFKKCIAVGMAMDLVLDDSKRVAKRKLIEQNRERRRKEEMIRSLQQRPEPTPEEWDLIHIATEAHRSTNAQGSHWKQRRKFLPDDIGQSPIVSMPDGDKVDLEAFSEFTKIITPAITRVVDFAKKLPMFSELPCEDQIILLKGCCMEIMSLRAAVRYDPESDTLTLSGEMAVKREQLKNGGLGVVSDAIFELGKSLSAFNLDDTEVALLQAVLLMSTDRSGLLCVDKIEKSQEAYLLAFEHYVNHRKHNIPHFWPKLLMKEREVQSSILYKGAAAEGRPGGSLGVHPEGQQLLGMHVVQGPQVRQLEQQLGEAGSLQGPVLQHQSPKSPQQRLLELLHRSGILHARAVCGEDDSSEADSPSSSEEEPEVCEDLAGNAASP

molecular target: human Thyroid Receptor alpha (THRa1), THRA (gene 7067) (UniProt P10827); experiment: ATG_THRa1_TRANS: Attagene TRANS-FACTORIAL HepG2 Assay for human Thyroid Receptor alpha (THRa1) (AID 2283014)
Protocol: ATG_TRANS is a cell-based, multiplexed-readout assay that uses HepG2, a human liver cell line, with measurements taken at 24 hours after chemical dosing in a 24-well plate.ATG_THRa1_TRANS is one of 30 assay component(s) measured or calculated from the ATG_TRANS assay. It is designed to make measurements of mRNA induction, a form of inducible reporter, as detected with fluorescence intensity signals by Reverse transcription polymerase chain reaction (RT-PCR) and Capillary electrophoresis technology.Data from the assay component ATG_THRa1_TRANS was analyzed into 1 assay endpoint. This assay endpoint, ATG_THRa1_TRANS, was analyzed in the positive analysis fitting direction relative to DMSO as the negative control and baseline of activity. Using a type of inducible reporter, measures of mRNA for gain-of-signal activity can be used to understand the reporter gene at the transcription factor-level as they relate to the gene THRA. Furthermore, this assay endpoint can be referred to as a primary readout, because this assay has produced multiple assay endpoints where this one serves a reporter gene function. To generalize the intended target to other relatable targets, this assay endpoint is annotated to the nuclear receptor intended target family, where the subfamily is non-steroidal.
Human liver HepG2 cells are transiently transfected with multiple reporter transcription units (MRTUs) in 6-well plates using FuGene 6 reagent (Roche; 3 ml FuGene/1 mg DNA). The MRTU constructs are regulated by a cis-regulating element (promoter). […] A major difference between the CIS and TRANS system is that in CIS activities of endogenous TFs are measured, whereas the TRANS assay evaluates changes in activities of exogenous, chimeric NR-Gal4 proteins. […] At the end of 24 hour incubation, total RNA was isolated using TriZol reagent (Invitrogen). The isolated RNA is then reverse-transcribed using oligo(dT) primer and Mo-MLV reverse transcriptase (Invitrogen) with DNAse I (Ambion) treatment for 30 min. The one-tenth of the produced cDNA was amplified by PCR using Taq DNA polymerase (Invitrogen) and two reporter sequence-specific primers. The PCR products were fluorescently labeled by primer extension with 6-arboxyfluorescein (6-FAM) 5'-labeled reporter sequence-specific primer (2 min at 95 C, 20 s at 68 C and 10 min at 72 C) and these products were digested with 5U of HpaI (New England Biolabs) for 2h at 37 C. The fragments were purified using Qiaquick PCR columns (Qiagen), analyzed on an ABI 3130xL genetic analyzer (Applied Biosystems) with peak positions identified by using a set of X-rhodamine (ROX)-labeled MapMarker1000 molecular weight standards (BioVentures). The raw capillary electrophoresis data was processed using Attagraph software (Attagene).

Row | SMILES | AC50 | outcome
1 | CN(C)c1ccc(O)c2c1C[C@H]1C[C@H]3[C@H](N(C)C)C(=O)C(C(N)=O)=C(O)[C@@]3(O)C(=O)C1=C2O | inconclusive: 1.3 µM | –
2 | C=C(C)C(=O)OCCC(F)(F)C(F)(F)C(F)(F)C(F)(F)C(F)(C(F)(F)F)C(F)(F)F | inconclusive: 13.9 µM | –
3 | N=C1N=C(N)c2ccccc21 | – | inactive
4 | COC(OC)(C(=O)c1ccccc1)c1ccccc1 | inconclusive: 100 µM | –
5 | CC(C)CCCC(C)CCO (stereo not given) | inconclusive: 100 µM | –
6 | CCCCC(CC)COC(=O)CCCCCCCCC(=O)OCC(CC)CCCC (stereo not given) | inconclusive: 23.7 µM | –
7 | CC1=CP(=O)(c2ccccc2)CC1 (stereo not given) | – | inactive
9 | CC(=O)CC(=O)Nc1ccccc1C | inconclusive: 177 µM | –
10 | O=C(O)CN(CCN(CC(=O)O)CC(=O)O)CCN(CC(=O)O)CC(=O)O | inconclusive: 50 µM | –
11 | Cc1cccc(N(C)C)c1 | – | inactive
12 | NC(N)=NC(=O)c1nc(Cl)c(N)nc1N | – | inactive
16 | OCCCc1cccnc1 | – | inactive
17 | CN1CCOCC1 | inconclusive: 0.0198 µM | –
18 | COCCCOc1ccnc(CS(=O)c2nc3ccccc3[nH]2)c1C (stereo not given) | active: 100 µM | –
19 | CN(N=O)C(=O)N[C@@H]1[C@@H](O)[C@H](O)[C@@H](CO)O[C@@H]1O | – | inactive
20 | Cc1ccc(C)c(O)c1 | inconclusive: 27.4 µM | –

Taken from above.
Cc1cccc(N(C)C)c1 | outcome: inactive
O=C(O)CN(CCN(CC(=O)O)CC(=O)O)CCN(CC(=O)O)CC(=O)O | AC50: inconclusive: 50 µM

Following part.

Row | SMILES | AC50 | outcome
22 | Cc1cc(=O)oc2cc(N(C)C)ccc12 | – | inactive
25 | Cc1ccc2ccc3ccc(C)cc3c2c1 | inconclusive: 100 µM | –
26 | CCCCCC(C=O)=Cc1ccccc1 | inconclusive: 100 µM | –
27 | COC(=O)c1ccc(C=O)cc1 | inconclusive: 105 µM | –
28 | Cc1cc(=O)[nH]c(C(C)C)n1 | inconclusive: 100 µM | –
29 | CN(C)C=O | inconclusive: 100 µM | –
33 | COc1ccc(C(=O)/C(Br)=C\C(=O)O)cc1 | – | inactive
35 | CC(=O)c1c(C)c([N+](=O)[O-])c(C(C)(C)C)c([N+](=O)[O-])c1C | inconclusive: 185 µM | –
36 | FC(F)=C(F)OC(F)(F)C(F)(F)C(F)(F)F | inconclusive: 150 µM | –
37 | CC(=O)C1C(=O)C=C(C)OC1=O (stereo not given) | – | inactive
38 | NC(=O)NC(N)=O | inconclusive: 0.0827 µM | –
39 | CC(=O)OC/C=C(/C)CCC=C(C)C | inconclusive: 0.0823 µM | –
40 | CCOC(=O)CN[C@@H](C(=O)N1CC[C@H]1C(=O)NCc1ccc(/C(N)=N/O)cc1)C1CCCCC1 | – | inactive
